Measured values from patent publication US7820700B2, “2-phenylpyridine derivative” (Astellas Pharma Inc., priority 2004, dated 2010).
Where a name gives a salt, the structure may show the parent alone. Some results were stated once for a whole list of compounds, not compound by compound.

Key:
[1] = test system: acetic acid-induced enteritis; experiment: Acetic acid-induced enteritis-suppressing action; assay type: in vivo; conditions: 10 mg/kg oral once a day, dissection on fourth day, Wistar rat
serum uric acid = experiment: Serum uric acid-lowering action after oral administration; assay type: in vivo; conditions: after 24 hours from the administration, ICR mice

For `N#Cc1cc(-c2cc(C(=O)O)ccn2)ccc1N1CCCCCC1` [Example 4, 2-(4-azepan-1-yl-3-cyanophenyl)isonicotinic acid monohydrochloride], the “Suppression of intestinal tissue weight increase” value [1] was at least 70%.

In the case of `CC(C)COc1c(F)cc(-c2cc(C(=O)[O-])ccn2)cc1C#N.[Na+]` [Example 84], the Uric acid-lowering ratio (serum uric acid) is reported as at least 50%.
